Values joined by “and” are separate entries in the source; they are usually repeats but may differ in a detail not shown here. Equal values may be shown once.
Molecular target: D(3) dopamine receptor (Homo sapiens, UniProt P35462)

By UniProt entry, the sequences of proteins in these tests, tags left out. Chains listed by the source or under a name are the forms on record and can include a tag or linker.
UniProt P35462, as listed by the source: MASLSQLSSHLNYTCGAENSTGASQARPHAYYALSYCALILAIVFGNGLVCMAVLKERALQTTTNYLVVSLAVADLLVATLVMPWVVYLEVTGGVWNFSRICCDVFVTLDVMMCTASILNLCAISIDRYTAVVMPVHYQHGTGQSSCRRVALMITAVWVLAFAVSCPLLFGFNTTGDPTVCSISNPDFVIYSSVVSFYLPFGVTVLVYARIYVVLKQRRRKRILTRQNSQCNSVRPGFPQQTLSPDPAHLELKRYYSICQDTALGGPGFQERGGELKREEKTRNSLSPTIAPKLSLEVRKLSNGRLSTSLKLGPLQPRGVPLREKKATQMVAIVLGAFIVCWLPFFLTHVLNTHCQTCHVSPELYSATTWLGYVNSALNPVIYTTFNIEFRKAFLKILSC

Ki | Compound
9.2 nM | OCCOCCN1CCN(C2=Nc3ccccc3Sc3ccccc32)CC1 [2-[2-(4-dibenzo[b,f][1,4]thiazepin-11-ylpiperazin-1-yl)ethoxy]ethanol]
3.4 nM and 2.4 nM | CN1CCN(CCCN2c3ccccc3Sc3ccc(Cl)cc32)CC1 [2-chloro-10-[3-(4-methylpiperazin-1-yl)propyl]phenothiazine;ethane-1,2-disulfonic acid]

Reference: BindingDB's records for doi:10.1124/jpet.105.092155 (Acadia Pharmaceuticals, 2005)
